Earlier results in patent publication US20100209350A1, “Biomarkers for Adipose Tissue Activity” (priority 2008, published 2010).
At least one structure is not confirmed: it was looked up by name or label, or the drawing left a doubt.

Test system: adiponectin
Conditions: patient responding to the therapy; sample such as blood; general statement, no study described

## CCc1ccc(CCOc2ccc(CC3SC(=O)NC3=O)cc2)nc1 (stereo not shown) [pioglitazone]
  increase of adiponectin level from a reference value: ≥ 100%
